In publication PMC10076285, “Oncogenic CALR mutant C-terminus mediates dual binding to the thrombopoietin receptor triggering complex dimerization and activation” (Nature Communications, 2023):
Results are given in words; binding and its absence hold for the method and conditions named.

Target: Recombinant CALR ΔC-tail (human) (UniProt P27797)
Experiment: oligomeric profile in native conditions; recombinant proteins, with or without reducing agent (Supplementary Fig. 14); both purified

- binding: no binding
Substance: Recombinant CALR ΔC-tail (from UniProt P27797 18-366) (domain or fragment)
